# According to the supplement of paper PMC12823440, “Inhibitors supercharge kinase turnover through native proteolytic circuits” (Nature, 2025):
# By UniProt entry, the sequences of proteins in these tests, tags left out. Where a name states a change or a piece, a line headed by the entry shows the natural chain unless it says otherwise.
# UniProt Q01974, whole entry: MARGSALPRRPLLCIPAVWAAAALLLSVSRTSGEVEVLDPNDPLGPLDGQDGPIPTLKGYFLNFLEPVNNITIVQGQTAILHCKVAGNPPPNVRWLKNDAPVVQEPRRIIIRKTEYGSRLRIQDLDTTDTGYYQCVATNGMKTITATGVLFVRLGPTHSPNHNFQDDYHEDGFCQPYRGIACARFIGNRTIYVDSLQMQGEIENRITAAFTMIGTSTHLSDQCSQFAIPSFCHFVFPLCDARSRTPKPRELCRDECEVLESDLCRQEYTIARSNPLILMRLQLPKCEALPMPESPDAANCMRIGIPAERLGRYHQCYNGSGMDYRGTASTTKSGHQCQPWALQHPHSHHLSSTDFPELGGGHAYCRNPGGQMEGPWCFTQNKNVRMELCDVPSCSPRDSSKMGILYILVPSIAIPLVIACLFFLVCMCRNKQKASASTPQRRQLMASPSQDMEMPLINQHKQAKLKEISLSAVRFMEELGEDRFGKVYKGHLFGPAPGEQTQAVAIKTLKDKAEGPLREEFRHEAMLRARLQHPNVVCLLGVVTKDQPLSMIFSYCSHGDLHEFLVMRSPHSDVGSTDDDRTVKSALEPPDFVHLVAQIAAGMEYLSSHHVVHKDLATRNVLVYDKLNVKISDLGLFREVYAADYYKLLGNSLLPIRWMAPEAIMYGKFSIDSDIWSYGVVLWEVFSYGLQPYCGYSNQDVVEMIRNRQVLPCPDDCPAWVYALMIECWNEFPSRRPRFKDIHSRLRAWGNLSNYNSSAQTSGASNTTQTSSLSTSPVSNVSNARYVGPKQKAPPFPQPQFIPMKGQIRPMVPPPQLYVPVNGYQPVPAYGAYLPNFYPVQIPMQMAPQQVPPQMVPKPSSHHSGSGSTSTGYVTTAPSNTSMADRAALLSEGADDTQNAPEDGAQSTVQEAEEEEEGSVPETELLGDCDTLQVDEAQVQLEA
# UniProt Q9Y6E0: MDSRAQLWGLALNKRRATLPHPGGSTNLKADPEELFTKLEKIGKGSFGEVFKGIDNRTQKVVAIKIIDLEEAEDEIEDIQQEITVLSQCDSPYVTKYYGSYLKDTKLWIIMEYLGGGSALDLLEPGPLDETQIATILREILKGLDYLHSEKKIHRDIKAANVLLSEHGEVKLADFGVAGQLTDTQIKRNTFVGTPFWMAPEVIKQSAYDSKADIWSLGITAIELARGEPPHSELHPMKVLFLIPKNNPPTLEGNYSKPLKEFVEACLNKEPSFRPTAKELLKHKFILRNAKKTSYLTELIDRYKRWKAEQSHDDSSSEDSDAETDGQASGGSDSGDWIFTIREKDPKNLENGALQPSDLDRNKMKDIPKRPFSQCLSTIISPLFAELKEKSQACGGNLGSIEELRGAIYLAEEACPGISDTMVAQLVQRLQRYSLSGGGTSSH
# UniProt Q15208: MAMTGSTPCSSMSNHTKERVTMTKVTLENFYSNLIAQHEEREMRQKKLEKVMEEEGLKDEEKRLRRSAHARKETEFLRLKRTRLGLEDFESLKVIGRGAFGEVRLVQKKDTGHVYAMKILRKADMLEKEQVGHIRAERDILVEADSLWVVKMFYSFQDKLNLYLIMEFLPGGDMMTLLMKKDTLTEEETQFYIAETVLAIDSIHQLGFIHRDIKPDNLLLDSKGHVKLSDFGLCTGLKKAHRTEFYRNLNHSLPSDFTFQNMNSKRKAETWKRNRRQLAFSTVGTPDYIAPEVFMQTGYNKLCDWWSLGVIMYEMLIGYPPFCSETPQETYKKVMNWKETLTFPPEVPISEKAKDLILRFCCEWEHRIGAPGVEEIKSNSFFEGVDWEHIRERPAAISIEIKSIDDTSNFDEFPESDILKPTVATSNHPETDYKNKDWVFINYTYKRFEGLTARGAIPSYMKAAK
# UniProt P42680: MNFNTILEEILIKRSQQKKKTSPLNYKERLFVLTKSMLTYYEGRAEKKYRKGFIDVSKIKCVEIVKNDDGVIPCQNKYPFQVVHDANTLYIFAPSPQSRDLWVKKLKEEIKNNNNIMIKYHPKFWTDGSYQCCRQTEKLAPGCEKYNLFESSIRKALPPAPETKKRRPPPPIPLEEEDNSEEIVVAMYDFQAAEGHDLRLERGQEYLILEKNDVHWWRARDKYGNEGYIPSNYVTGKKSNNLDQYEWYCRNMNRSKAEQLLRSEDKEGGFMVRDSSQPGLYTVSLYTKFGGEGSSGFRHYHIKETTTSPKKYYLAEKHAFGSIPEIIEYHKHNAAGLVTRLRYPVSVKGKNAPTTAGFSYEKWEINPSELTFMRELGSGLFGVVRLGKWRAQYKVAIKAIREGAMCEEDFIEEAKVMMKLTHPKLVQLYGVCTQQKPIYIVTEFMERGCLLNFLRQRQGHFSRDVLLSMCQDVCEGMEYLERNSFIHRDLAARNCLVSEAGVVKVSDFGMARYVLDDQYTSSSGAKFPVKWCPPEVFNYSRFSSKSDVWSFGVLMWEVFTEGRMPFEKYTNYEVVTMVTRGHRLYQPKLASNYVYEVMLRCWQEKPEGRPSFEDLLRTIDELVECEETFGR
# UniProt P29597: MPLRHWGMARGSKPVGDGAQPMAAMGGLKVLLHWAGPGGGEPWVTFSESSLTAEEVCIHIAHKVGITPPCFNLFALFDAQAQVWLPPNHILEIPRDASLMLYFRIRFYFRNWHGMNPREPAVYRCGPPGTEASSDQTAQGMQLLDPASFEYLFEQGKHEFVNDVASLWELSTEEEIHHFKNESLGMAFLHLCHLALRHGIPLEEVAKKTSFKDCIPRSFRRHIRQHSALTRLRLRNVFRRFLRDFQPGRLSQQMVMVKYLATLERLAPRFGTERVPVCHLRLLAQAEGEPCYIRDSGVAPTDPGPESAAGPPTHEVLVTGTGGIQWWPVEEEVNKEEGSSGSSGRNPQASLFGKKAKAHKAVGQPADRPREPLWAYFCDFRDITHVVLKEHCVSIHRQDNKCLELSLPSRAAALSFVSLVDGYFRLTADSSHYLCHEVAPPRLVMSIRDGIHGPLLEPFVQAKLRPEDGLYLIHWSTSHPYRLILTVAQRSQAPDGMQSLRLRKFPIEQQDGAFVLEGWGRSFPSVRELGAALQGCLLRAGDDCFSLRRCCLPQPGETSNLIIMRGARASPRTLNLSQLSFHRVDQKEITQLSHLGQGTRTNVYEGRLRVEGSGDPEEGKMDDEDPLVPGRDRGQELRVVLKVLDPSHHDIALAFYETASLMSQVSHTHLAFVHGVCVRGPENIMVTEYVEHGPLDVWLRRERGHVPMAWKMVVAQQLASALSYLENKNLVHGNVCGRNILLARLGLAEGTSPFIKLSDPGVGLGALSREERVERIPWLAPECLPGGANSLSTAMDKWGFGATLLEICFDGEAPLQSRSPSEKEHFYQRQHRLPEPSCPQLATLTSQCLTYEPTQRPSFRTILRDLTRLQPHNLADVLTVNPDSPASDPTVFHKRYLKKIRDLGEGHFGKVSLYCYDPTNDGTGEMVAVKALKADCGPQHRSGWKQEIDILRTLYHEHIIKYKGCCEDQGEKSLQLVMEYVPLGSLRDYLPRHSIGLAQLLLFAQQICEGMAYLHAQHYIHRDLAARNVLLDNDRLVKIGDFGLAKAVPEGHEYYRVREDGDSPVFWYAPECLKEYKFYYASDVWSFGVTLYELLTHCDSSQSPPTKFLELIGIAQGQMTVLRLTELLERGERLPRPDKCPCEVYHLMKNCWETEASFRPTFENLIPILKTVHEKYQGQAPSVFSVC
# UniProt Q6PHR2: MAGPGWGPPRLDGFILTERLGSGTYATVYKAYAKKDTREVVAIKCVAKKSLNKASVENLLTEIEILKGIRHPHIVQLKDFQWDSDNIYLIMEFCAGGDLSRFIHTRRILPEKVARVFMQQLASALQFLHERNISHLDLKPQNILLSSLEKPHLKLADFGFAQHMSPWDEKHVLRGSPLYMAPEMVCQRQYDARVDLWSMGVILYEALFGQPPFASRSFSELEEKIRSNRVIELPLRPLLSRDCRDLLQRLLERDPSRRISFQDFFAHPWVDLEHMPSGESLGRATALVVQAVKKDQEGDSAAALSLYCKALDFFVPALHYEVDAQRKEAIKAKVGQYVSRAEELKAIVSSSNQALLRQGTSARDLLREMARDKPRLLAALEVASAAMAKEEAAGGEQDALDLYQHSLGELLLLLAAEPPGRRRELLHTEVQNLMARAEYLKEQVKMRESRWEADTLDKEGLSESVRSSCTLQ
# UniProt P07947, whole entry, looked up: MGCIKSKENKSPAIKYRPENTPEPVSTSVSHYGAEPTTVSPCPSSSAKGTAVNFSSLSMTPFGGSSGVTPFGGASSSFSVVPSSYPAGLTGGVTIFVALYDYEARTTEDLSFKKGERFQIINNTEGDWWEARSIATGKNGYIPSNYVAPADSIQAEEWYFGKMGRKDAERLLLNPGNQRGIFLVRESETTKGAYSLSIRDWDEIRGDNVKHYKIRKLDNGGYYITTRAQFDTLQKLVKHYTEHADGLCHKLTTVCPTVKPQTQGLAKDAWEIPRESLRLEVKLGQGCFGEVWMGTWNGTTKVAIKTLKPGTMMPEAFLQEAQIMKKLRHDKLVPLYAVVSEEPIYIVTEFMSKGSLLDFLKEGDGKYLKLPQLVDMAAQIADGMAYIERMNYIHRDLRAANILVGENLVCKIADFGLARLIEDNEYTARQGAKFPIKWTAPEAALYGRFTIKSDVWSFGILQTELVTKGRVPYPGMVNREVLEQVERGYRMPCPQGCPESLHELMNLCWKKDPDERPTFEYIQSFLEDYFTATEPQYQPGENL
# UniProt P43403: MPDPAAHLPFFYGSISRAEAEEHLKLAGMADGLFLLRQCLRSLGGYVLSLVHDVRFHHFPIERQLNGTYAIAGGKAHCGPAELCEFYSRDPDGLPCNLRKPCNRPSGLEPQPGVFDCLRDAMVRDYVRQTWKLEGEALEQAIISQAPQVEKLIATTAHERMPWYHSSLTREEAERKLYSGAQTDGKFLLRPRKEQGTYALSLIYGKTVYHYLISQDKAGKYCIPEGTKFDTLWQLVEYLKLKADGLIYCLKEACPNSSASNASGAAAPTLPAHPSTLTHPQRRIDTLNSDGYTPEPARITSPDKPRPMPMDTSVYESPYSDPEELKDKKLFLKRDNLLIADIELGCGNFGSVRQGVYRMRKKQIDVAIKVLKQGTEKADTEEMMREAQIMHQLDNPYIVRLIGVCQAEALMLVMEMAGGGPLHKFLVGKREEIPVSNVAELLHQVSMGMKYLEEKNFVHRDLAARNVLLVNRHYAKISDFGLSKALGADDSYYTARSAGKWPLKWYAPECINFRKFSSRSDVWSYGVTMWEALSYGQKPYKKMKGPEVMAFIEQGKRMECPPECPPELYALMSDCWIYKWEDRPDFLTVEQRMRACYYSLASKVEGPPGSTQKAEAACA
# UniProt P11802: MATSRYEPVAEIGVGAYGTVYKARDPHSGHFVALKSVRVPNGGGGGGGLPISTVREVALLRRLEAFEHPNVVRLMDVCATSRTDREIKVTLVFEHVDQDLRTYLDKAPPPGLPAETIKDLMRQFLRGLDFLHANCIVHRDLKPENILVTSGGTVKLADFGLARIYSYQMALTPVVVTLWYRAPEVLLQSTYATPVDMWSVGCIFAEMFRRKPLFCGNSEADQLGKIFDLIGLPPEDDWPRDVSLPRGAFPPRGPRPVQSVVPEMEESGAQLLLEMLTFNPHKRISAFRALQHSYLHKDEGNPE
# UniProt P50613: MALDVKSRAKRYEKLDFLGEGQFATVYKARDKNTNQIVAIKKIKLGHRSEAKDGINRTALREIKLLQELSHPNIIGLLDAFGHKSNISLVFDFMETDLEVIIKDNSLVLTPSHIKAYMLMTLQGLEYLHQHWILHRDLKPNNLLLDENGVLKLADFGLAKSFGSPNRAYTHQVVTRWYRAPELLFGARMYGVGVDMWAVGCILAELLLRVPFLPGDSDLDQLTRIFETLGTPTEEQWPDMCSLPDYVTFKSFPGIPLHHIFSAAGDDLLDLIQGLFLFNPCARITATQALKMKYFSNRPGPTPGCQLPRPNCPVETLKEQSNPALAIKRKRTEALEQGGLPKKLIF
# UniProt P50750, whole entry: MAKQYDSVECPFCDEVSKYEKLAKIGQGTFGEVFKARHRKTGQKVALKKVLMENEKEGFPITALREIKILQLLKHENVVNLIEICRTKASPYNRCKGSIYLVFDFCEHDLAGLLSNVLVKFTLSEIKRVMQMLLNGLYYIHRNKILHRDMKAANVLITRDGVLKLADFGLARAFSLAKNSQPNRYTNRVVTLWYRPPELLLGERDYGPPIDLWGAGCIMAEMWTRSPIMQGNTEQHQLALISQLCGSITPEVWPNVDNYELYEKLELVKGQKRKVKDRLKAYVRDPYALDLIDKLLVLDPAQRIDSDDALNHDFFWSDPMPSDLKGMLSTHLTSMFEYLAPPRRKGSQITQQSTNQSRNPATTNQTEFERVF
# The other results are listed elsewhere or left out. The calls rarely recur for the same compound in another form.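 In K562 cells expressing nanoluciferase-fused kinases, luminescence was recorded at 4 h intervals between 2 and 18 h, normalized as percent of control with DMSO at 100% and a positive control at 0%. A significant (2 sigma) signal drop marks a time point as decreased. The authors' rule for a hit is not shown and takes in more than the number of time points.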
# What was measured:
# Settings in all cases: K562; 2-18 h
# ROR2 = ROR2 (UniProt Q01974); test: number of time points (of 5) at which kinase-Nluc abundance scored as decreased, DMSO-normalised (count); higher = more persistent destabilization
# RPS6KA1 = RPS6KA1 (UniProt Q15418); test: as above
# SPHK1 = SPHK1 (UniProt Q9NYA1); test: as above
# SRC = SRC (UniProt P12931); test: as above
# STK24 = STK24 (UniProt Q9Y6E0); test: as above
# STK38 = STK38 (UniProt Q15208); test: as above
# SYK = SYK (UniProt P43405); test: as above
# TEC = TEC (UniProt P42680); test: as above
# TYK2 = TYK2 (UniProt P29597); test: as above
# ULK3 = ULK3 (UniProt Q6PHR2); test: as above
# YES1 = YES1 (UniProt P07947); test: as above
# ZAK = ZAK (UniProt Q9NYL2); test: as above
# ZAP70 = ZAP70 (UniProt P43403); test: as above
# CDK4 = CDK4 (UniProt P11802); test: number of time points (of 4; 2 h point missing) at which kinase-Nluc abundance scored as decreased, DMSO-normalised (count); higher = more persistent destabilization
# CDK7 = CDK7 (UniProt P50613); test: as above
# CDK9 = CDK9 (UniProt P50750); test: as above
Structure (SMILES),number of time points (ROR2),number of time points (RPS6KA1),number of time points (SPHK1),number of time points (SRC),number of time points (STK24),number of time points (STK38),number of time points (SYK),number of time points (TEC),number of time points (TYK2),number of time points (ULK3),number of time points (YES1),number of time points (ZAK),number of time points (ZAP70),number of time points (CDK4),number of time points (CDK7),number of time points (CDK9)
FC(F)c1nc2ccccc2n1-c1nc(N2CCOCC2)nc(N2CCOCC2)n1 (2 µM),0,0,0,0,0,0,0,0,0,0,0,0,0,0,0,0
CCc1cc2c(cc1N1CCC(N3CCOCC3)CC1)C(C)(C)c1[nH]c3cc(C#N)ccc3c1C2=O [Alectinib] (10 µM),0,0,0,0,0,0,0,0,0,0,0,0,0,0,0,0
CCOc1ccc2cc(-c3nn(CC4CCN(C)CC4)c4ncnc(N)c34)ccc2n1 (10 µM),0,0,0,0,0,0,0,0,0,0,0,0,0,0,0,0
COc1ccc2c(OCc3nnc4ccc(-c5ccccc5)nn34)ccnc2c1 (2 µM),0,0,0,0,0,0,0,0,0,0,0,0,0,0,0,0
Cc1cc(=O)oc2c(C=O)c(O)ccc12 (10 µM),0,0,0,0,0,0,0,0,0,0,0,0,0,0,0,0
C[C@@H]1COCCN1c1cc(C2([S@@](C)(=N)=O)CC2)nc(-c2ccnc3[nH]ccc23)n1 [(S)-Ceralasertib] (10 µM),0,0,0,0,0,0,0,0,0,0,0,0,0,0,0,0
CCS(=O)(=O)Nc1ccc2[nH]c(O)c(C(=Nc3ccc(CN4CCCCC4)cc3)c3ccccc3)c2c1 [Hesperadin] (2.5 µM),0,0,0,0,0,1,0,2,3,4,2,0,0,0,1,0
CC#CC(=O)Nc1ccc2ncnc(Nc3cccc(Br)c3)c2c1 (10 µM),0,0,0,0,0,0,0,0,2,0,0,0,0,0,2,0
C[C@@H]1CCN(C(=O)CC#N)C[C@@H]1N(C)c1ncnc2[nH]ccc12 [Tofacitinib (citrate)] (10 µM),0,0,0,0,0,0,,0,0,0,0,0,0,0,0,0
Nc1nc(F)nc2c1ncn2[C@@H]1O[C@H](CO)[C@@H](O)[C@@H]1O [Fludarabine] (10 µM),0,0,0,0,0,0,0,0,0,0,0,0,0,0,0,0
O=C1NC(=O)/C(=C\c2cccc(C(F)(F)F)c2)S1 (2.5 µM),0,0,0,0,0,0,0,0,0,0,0,0,0,0,0,0
CC1=C(C(=O)O)N2C(=O)[C@@H](NC(=O)[C@H](N)C3=CCC=CC3)[C@H]2SC1 [Cephradine] (10 µM),0,0,0,0,0,0,0,0,0,0,0,0,0,0,0,0
FC(F)(F)c1ccc(CNc2ccc(Cc3c[nH]c4ncccc34)cn2)cc1 (10 µM),0,0,0,0,0,0,0,0,0,0,0,0,0,0,0,0
